{
  "source": "patent US6737433B1",
  "about": "“1-N-phenylamino-1H-imidazole derivatives as aromatase inhibitors and pharmaceutical compositions containing them” (Laboratoire Theramex, priority 2002, dated 2004)",
  "target": "T1, human aromatase (Homo sapiens, UniProt P11511)",
  "T1 construct": "The JEG-3 cell line, derived from a human placental choriocarcinoma, is intrinsically very rich in human aromatase; endogenous in cells; host or cells: JEG-3 (human placental choriocarcinoma)",
  "T1 sequence (P11511 1-503)": "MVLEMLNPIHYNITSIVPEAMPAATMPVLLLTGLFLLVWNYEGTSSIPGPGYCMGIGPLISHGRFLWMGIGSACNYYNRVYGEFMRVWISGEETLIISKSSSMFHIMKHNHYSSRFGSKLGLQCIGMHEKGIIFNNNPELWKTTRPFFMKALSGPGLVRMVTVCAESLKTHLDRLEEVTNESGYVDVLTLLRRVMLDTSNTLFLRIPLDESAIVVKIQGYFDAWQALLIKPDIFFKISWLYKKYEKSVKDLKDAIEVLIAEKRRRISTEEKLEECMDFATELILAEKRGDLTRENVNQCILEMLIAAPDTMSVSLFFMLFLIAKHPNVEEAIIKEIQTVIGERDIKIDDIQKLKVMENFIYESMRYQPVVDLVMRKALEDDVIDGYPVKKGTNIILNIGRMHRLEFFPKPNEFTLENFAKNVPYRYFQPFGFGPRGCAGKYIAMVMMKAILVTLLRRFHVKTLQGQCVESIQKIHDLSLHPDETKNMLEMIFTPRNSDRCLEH",
  "assay": "Inhibition of human aromatase in vitro in JEG-3 cells (3H-water release from 1β-3H-androstenedione)",
  "format": "cell-based",
  "conditions": "10 nM 1β-3H-androstenedione, 2 h incubation",
  "method": "Stocks of JEG-3 cells are grown up to 80% of confluence as monolayers in plastic flasks in minimum Eagle's medium with 1 g/l glucose and 10% decomplemented fetal calf serum at pH 7.4 and 37° C., under a 5% CO2 atmosphere. Then, 24 hours before aromatase activity measurement, JEG-3 cells are distributed for seeding in 96-well microplates (60,000 to 100,000 viable cells in 100 μl of culture medium per well); 24 hours later, microplates are rinsed and fresh medium containing the radioactive aromatase substrate (1β-^3H-androstenedione, 10 nM) is added together with test compounds dissolved with 1% dimethylsulfoxyde in a test concentration range between 10^−11 and 10^−4 M in a total volume of 150 μl.\nTwo hours after the beginning of the incubation, 100 μl of the supernatants are transferred to homologous new 96-well microplates. A solution of dextran-coated charcoal (1%) is added in each well (100 μl/well); after standing for 10 minutes on ice, microplates are centrifuged (1500 g) for 10 more minutes at 4° C. All steroids, including the radioactive substrate and the newly biosynthesized estrogens, are trapped complexed by the charcoal; only the ^3H-water specifically formed during aromatisation of 1β-^3H-androstenedione, involving a specific oxidative step removing the 1β-^3H, remains in the supernatant at this stage. […]",
  "data": [
    {"compound": "CC(C)(C#N)c1cc(Cn2cncn2)cc(C(C)(C)C#N)c1", "note": "[Anastrozole, anastrozole, reference compound]", "values": [
      {"measurement": "IC50", "value": "8.21 ± 1.27", "unit": "nM"}
    ]}
  ]
}
